Drawing on the supplement of paper PMC7752906, this text covers degeneracy for 81 compounds.

SMILES strings stand for the structures. Counter-ions that a name gives are not always drawn. The list shows a part of the results. Repeats in this data set agree poorly, so a single value says little.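 Wells held roughly 40 S. mansoni schistosomula, imaged in bright field over time against wells given 0.1% DMSO. The paper defines hits as drugs with a Mahalanobis distance of at least 2.47, three standard deviations above the DMSO control mean. Degeneracy is the proportion of worms classified as opaque.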

The subject of the test is Schistosoma mansoni schistosomula. The experiment in a line: degeneracy (percent of somules classified as degenerate/opaque); higher = more parasite degeneration/death; extreme values may be limits of the assay. The settings on record: 10 µM; 72 h.
`CN1CCC(=C2c3ccccc3Sc3ccccc32)CC1` [Pimethixene Maleate] yielded a degeneracy of 100%.

Consider `N[C@@H](Cc1c[nH]c2ccccc12)C(=O)O` [Tryptophan], for which the degeneracy came to 16.7%.

`O=C(OOC(=O)c1ccccc1)c1ccccc1` [Benzoyl Peroxide]: the degeneracy was determined as 8.57%.

The compound `CC(O)Cn1cnc2c1c(=O)n(C)c(=O)n2C` (stereo unspecified) [Proxyphylline] showed a degeneracy of 10%.

For the compound `NC(=O)CCCCC1CCSS1` (stereo unspecified) [Lipoamide], the degeneracy turned out to be 5.56%.

`C=C(C)[C@H]1CC=C(C)CC1` [D-limonene] gave a degeneracy of 0%.

Take `Cc1c(NC(=O)c2cccnc2)c(=O)n(-c2ccccc2)n1C` [Nifenazone]: the degeneracy worked out at 11.4%.

`CN1C(=O)CC[C@H]1c1cccnc1` [Cotinine]: the degeneracy was 15.8%.

In turn, `CC[C@@H]1C(=O)OC[C@@H]1Cc1cncn1C` [Pilocarpine] had a degeneracy of 5.88%.

For the compound `O=c1oc2c(O)c(O)cc3c(=O)oc4c(O)c(O)cc1c4c23` [Ellagic Acid], the degeneracy was 7.5%.

On to `COc1cccc2c1C(=O)c1c(O)c3c(c(O)c1C2=O)C[C@@](O)(C(C)=O)C[C@@H]3O[C@H]1C[C@H](N)[C@H](O)[C@H](C)O1` [Daunorubicin], for which the degeneracy was 25%.

`C=CC1=C(C(=O)O)N2C(=O)[C@@H](NC(=O)/C(=N\O)c3csc(N)n3)[C@H]2SC1` [cefdinir] yielded a degeneracy of 3.23%.

Consider `OCc1ccccc1O[C@@H]1O[C@H](CO)[C@@H](O)[C@H](O)[C@H]1O` [Salicin], for which the degeneracy was determined as 6.06%.

Compound `CC(=O)NS(=O)(=O)c1ccc(N)cc1` [Sulfacetamide] displayed a degeneracy of 3.85%.

Take `COc1ccc2cc([C@H](C)C(=O)O)ccc2c1` [Naproxen]: the degeneracy worked out at 7.41%.

Regarding `Nc1cc(N2CCCCC2)nc(N)[n+]1[O-]` [Minoxidil], the degeneracy amounted to 4.76%.

On to `O=C(O)c1ccccc1OP(=O)(O)O` [Fosfosal], for which the degeneracy is 11.8%.

As to `C/C=C(/C(=C/C)c1ccc(O)cc1)c1ccc(O)cc1` [Dienestrol], the degeneracy came to 100%.

With `Cc1ncc([N+](=O)[O-])n1CC(C)O` (stereo unspecified) [Secnidazole], the degeneracy amounted to 7.69%.

The compound `CCC(NC(C)C)C(O)c1ccc(O)c2[nH]c(=O)ccc12` (stereo unspecified) [Procaterol Hcl Hemihydrate] had a degeneracy of 7.69%.

Take `CC1(C)S[C@@H]2[C@H](NC(=O)[C@H](N)c3ccccc3)C(=O)N2[C@H]1C(=O)O` [Ampicillin Sodium]: the degeneracy came out at 8.11%.

Compound `O=c1n(CCCN2CCN(c3cccc(Cl)c3)CC2)nc2ccccn12` [Trazodone] displayed a degeneracy of 4.08%.

Compound `CC(=O)NCCCCCC(=O)O` [Acexamic Acid] displayed a degeneracy of 5.13%.

`O=C(O)c1cc(=O)[nH]c(=O)[nH]1` [Orotic Acid] came in with a degeneracy of 4%.

As to `Cc1nc2ccccn2c(=O)c1CCN1CCC(C(=O)c2ccc(F)cc2)CC1` [Pirenperone], the degeneracy came out at 8.33%.

The compound `O=C(CCNNC(=O)c1ccncc1)NCc1ccccc1` [Nialamide] displayed a degeneracy of 7.69%.

`CCCCC[C@H](O)/C=C/[C@H]1[C@H](O)CC(=O)[C@@H]1C/C=C\CCCC(=O)O` [Dinoprostone]: the degeneracy is 6.25%.

`NC(=O)c1cnccn1` [Pyrazinamide]: the degeneracy was 0%.

`CC(=O)O[C@H]1C(=O)[C@@]2(C)[C@H]([C@H](OC(=O)c3ccccc3)[C@]3(O)C[C@H](OC(=O)[C@H](O)[C@@H](NC(=O)c4ccccc4)c4ccccc4)C(C)=C1C3(C)C)[C@]1(OC(C)=O)CO[C@@H]1C[C@@H]2O` [Taxol, Paclitaxel] registered a degeneracy of 21.7%.

For the compound `CCCN(CCC)CCc1cccc2c1CC(=O)N2` [Ropinirole Hydrochloride], the degeneracy amounted to 9.68%.

For the compound `C/C=C/c1ccc(OC)cc1` [Anethole], the degeneracy turned out to be 8.89%.

The compound `CC(=O)N(c1onc(C)c1C)S(=O)(=O)c1ccc(N)cc1` [Sulfisoxazole Acetyl] registered a degeneracy of 5.13%.

With `C[C@@H](O[C@H]1OCCN(Cc2n[nH]c(=O)[nH]2)[C@H]1c1ccc(F)cc1)c1cc(C(F)(F)F)cc(C(F)(F)F)c1` [Aprepitant], the degeneracy was 100%.

With `CC(N)CCCC(C)(C)O` (stereo unspecified) [Heptaminol Hydrochloride], the degeneracy was 6.67%.

The compound `CC(C)OC(=O)C(C)(C)Oc1ccc(C(=O)c2ccc(Cl)cc2)cc1` [Fenofibrate] yielded a degeneracy of 55.6%.

The compound `CCOC(=S)SSC(=S)OCC` [Dixanthogen] returned a degeneracy of 0%.

As to `Cc1cc2c(s1)Nc1ccccc1N=C2N1CCN(C)CC1` [Olanzapine], the degeneracy turned out to be 8.33%.

For `O=C(O)c1ccccc1O` [Salicylic Acid], the degeneracy is 12.5%.

Take `CCOc1ccc2nc(S(N)(=O)=O)sc2c1` [Ethoxzolamide]: the degeneracy was 0%.

Turning to `O=C(O)c1cc(/N=N/c2ccc(S(=O)(=O)Nc3ccccn3)cc2)ccc1O` [Sulfasalazine], the degeneracy worked out at 12.5%.

For the compound `CO[C@H]1/C=C/O[C@@]2(C)Oc3c(C)c(O)c4c(O)c(c(/C=N/N5CCN(C)CC5)c(O)c4c3C2=O)NC(=O)/C(C)=C\C=C\[C@H](C)[C@H](O)[C@@H](C)[C@@H](O)[C@@H](C)[C@H](OC(C)=O)[C@@H]1C` [Rifampin], the degeneracy was 22.2%.

Take `Cc1c(Cl)cccc1Nc1ccccc1C(=O)O` [Tolfenamic Acid]: the degeneracy stood at 100%.

As for `Cc1ccc(N(CC2=NCCN2)c2cccc(O)c2)cc1` [Phentolamine], the degeneracy was 7.14%.

In turn, `O=C1c2c(O)cc(CO)cc2C(OC2OC(CO)C(O)C(O)C2O)c2cccc(OC3OC(CO)C(O)C(O)C3O)c21` (stereo unspecified) [Casanthranol [cascaroside A Shown]] displayed a degeneracy of 7.5%.

Compound `O=C(O)c1ccccc1-c1c2cc(I)c(=O)c(I)c-2oc2c(I)c(O)c(I)cc12` [Erythrosine Sodium] yielded a degeneracy of 9.09%.

Compound `CCc1ccc(CCOc2ccc(CC3SC(=O)NC3=O)cc2)nc1` (stereo unspecified) [Pioglitazone] yielded a degeneracy of 0%.

With `OCCN1CCN(CCCN2c3ccccc3Sc3ccc(C(F)(F)F)cc32)CC1` [fluphenazine], the degeneracy is 100%.

In turn, `CC(C)(Oc1ccc(CCNC(=O)c2ccc(Cl)cc2)cc1)C(=O)O` [Bezafibrate] displayed a degeneracy of 6.67%.

In turn, `Clc1ccc2c(c1)C(N1CCNCC1)=Nc1ccccc1O2` [Amoxapine] registered a degeneracy of 100%.

As for `CC[C@H]1OC(=O)[C@H](C)[C@@H](O[C@H]2C[C@@](C)(OC)[C@@H](O)[C@H](C)O2)[C@H](C)[C@@H](O[C@@H]2O[C@H](C)C[C@H](N(C)C)[C@H]2O)[C@](C)(O)C[C@@H](C)C(=O)[C@H](C)[C@@H](O)[C@]1(C)O` [Erythromycin], the degeneracy stood at 0%.

The compound `CC(C(=O)O)c1ccc(CC2CCCC2=O)cc1` (stereo unspecified) [Loxoprofen] yielded a degeneracy of 2.7%.

In the case of `CC1=C(/C=C/C(C)=C/C=C/C(C)=C/C=C/C=C(C)/C=C/C=C(C)/C=C/C2=C(C)CCCC2(C)C)C(C)(C)CCC1` [Beta-carotene], the degeneracy is 0%.

Compound `NC(=O)c1ccccc1O` [Salicylamide] returned a degeneracy of 4%.

Consider `CCOC(=O)N1CCC(=C2c3ccc(Cl)cc3CCc3cccnc32)CC1` [Loratadine], for which the degeneracy came to 16.7%.

Take `Oc1c(Br)cc(Br)c2cccnc12` [Broxyquinoline]: the degeneracy came out at 100%.

Consider `COc1ccc(CC(C)NCC(O)c2ccc(O)c(NC=O)c2)cc1` (stereo unspecified) [Formoterol], for which the degeneracy is 100%.

`CC(C)C[C@H](NC(=O)[C@H](Cc1ccccc1)NC(=O)c1cnccn1)B(O)O` [Bortezomib] came in with a degeneracy of 100%.

Compound `CN(C)[C@@H]1C(O)=C(C(N)=O)C(=O)[C@@]2(O)C(O)=C3C(=O)c4c(O)cccc4[C@@](C)(O)[C@H]3C[C@@H]12` [Tetracycline] showed a degeneracy of 6.25%.

`COC(=O)[C@H](c1ccccc1Cl)N1CCc2sccc2C1` [Clopidogrel] gave a degeneracy of 11.9%.

`C[C@]12CCC(=O)C=C1CC[C@@H]1[C@@H]2C(=O)C[C@@]2(C)[C@H]1CC[C@]2(O)C(=O)CO` [Cortisone] came in with a degeneracy of 5.26%.

With `CC(=O)[C@@]12O[C@](C)(c3ccccc3)O[C@@H]1C[C@H]1[C@@H]3CCC4=CC(=O)CC[C@]4(C)[C@H]3CC[C@@]12C` [Algestone Acetophenide], the degeneracy was 100%.

`Nc1ccc(S(=O)(=O)NC(=O)c2ccccc2)cc1` [Sulfabenzamide] gave a degeneracy of 0%.

As for `C[N+](C)(C)CCOP(=O)(O)OP(=O)([O-])OC[C@H]1O[C@@H](n2ccc(N)nc2=O)[C@H](O)[C@@H]1O` [Citicoline], the degeneracy was 2.86%.

Regarding `Cc1cccc(C)c1NC(=O)c1ccccc1C(=O)O` [Ftaxilide], the degeneracy is 5.26%.

`CS(=O)(=O)c1ccc([C@@H](O)[C@@H](CF)NC(=O)C(Cl)Cl)cc1` [Florfenicol] had a degeneracy of 0%.

Turning to `c1ccc2c(c1)CCCC2C1=NCCN1` (stereo unspecified) [Tetrahydrozoline], the degeneracy was determined as 3.12%.

Take `CCCCN1C[C@H](O)[C@@H](O)[C@H](O)[C@H]1CO` [Miglustat]: the degeneracy came out at 5.56%.

`C[C@@H](O)[C@H]1C(=O)N2C(C(=O)O)=C(SCCNC=N)C[C@H]12` [Imipenem]: the degeneracy was 0%.

The compound `CCCCCN(C)CCC(O)(P(=O)(O)O)P(=O)(O)O` [Ibandronate Sodium] yielded a degeneracy of 0%.

`C[Se]CC[C@H](N)C(=O)O` [Selenomethionine] gave a degeneracy of 4.65%.

`OC[C@@H](O)[C@@H](O)[C@H](O)[C@H](O)CO` [Mannitol] showed a degeneracy of 31.6%.

`CCn1cc(C(=O)O)c(=O)c2cc(F)c(N3CCNCC3)nc21` [Enoxacin] returned a degeneracy of 3.57%.

For `Oc1ccc(C2CNCCc3c2cc(O)c(O)c3Cl)cc1` (stereo unspecified) [Fenoldopam Mesylate], the degeneracy turned out to be 0%.

As for `CC(C(=O)O)c1cccc(Oc2ccccc2)c1` (stereo unspecified) [Fenoprofen], the degeneracy was 0%.

`CCCc1ncc(C[n+]2ccccc2C)c(N)n1` [Amprolium] registered a degeneracy of 7.14%.

Regarding `CCCOc1cc(N)ccc1C(=O)OCCN(CC)CC` [Propoxycaine Hydrochloride], the degeneracy came out at 8.57%.

`OC(Cn1cncn1)(Cn1cncn1)c1ccc(F)cc1F` [Fluconazole] had a degeneracy of 4.55%.

`CC[N+](C)(C)c1cccc(O)c1` [Edrophonium Chloride] returned a degeneracy of 5%.

On to `Nc1[nH]cnc2ncnc1-2` [Adenine], for which the degeneracy is 2.5%.

Regarding `CCCCCCCCCCCCCCCC(=O)OC/C=C(C)/C=C/C=C(C)/C=C/C1=C(C)CCCC1(C)C` [Retinyl Palmitate], the degeneracy was determined as 9.38%.

On to `NS(=O)(=O)c1cc(C2(O)NC(=O)c3ccccc32)ccc1Cl` (stereo unspecified) [Chlorthalidone], for which the degeneracy turned out to be 4%.
